Assay results taken from the supplement of paper PMC8728848.
This is one part of the list.

What was measured:
Assay in all cases: glycan array binding signal (z-score within array); higher = stronger binding
Conditions in all cases: glycan notation: IUPAC condensed, linker removed
[1] = biological target: Neu5Ac(a2-6)Gal(b1-4)GlcNAc(b1-2)Man(a1-3)[Man(a1-6)]Man(b1-4)GlcNAc(b1-4)GlcNAc
Method in brief: (§1)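 The binding signal is a Z-score computed within each array. Data were drawn from 3228 arrays in the Consortium for Functional Glycomics database, restricted to those with a known protein sequence. Scores were averaged over arrays of the same protein sequence at different concentrations or buffers, and over linkers, and negative values can be taken as non-binding.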

[2] = biological target: Neu5Ac(a2-6)Gal(b1-4)GlcNAc(b1-2)Man(a1-3)[Neu5Ac(a2-3)Gal(b1-4)GlcNAc(b1-2)Man(a1-6)]Man(b1-4)GlcNAc(b1-4)GlcNAc
Method in brief: as §1

[3] = biological target: Neu5Ac(a2-6)Gal(b1-4)GlcNAc(b1-2)Man(a1-3)[Neu5Ac(a2-6)Gal(b1-4)GlcNAc(b1-2)Man(a1-6)]Man(b1-4)GlcNAc(b1-4)GlcNAc
Method in brief: as §1

[4] = biological target: Neu5Ac(a2-6)Gal(b1-4)GlcNAc(b1-2)Man(a1-3)[Neu5Ac(a2-6)Gal(b1-4)GlcNAc(b1-2)Man(a1-6)]Man(b1-4)GlcNAc(b1-4)[Fuc(a1-6)]GlcNAc
Method in brief: as §1

[5] = biological target: Neu5Ac(a2-6)Gal(b1-4)GlcNAc(b1-2)Man(a1-6)Man(b1-4)GlcNAc(b1-4)GlcNAc
Method in brief: as §1

[6] = biological target: Neu5Ac(a2-6)Gal(b1-4)GlcNAc(b1-2)Man(a1-6)[Gal(b1-4)GlcNAc(b1-2)Man(a1-3)]Man(b1-4)GlcNAc(b1-4)GlcNAc
Method in brief: as §1

[7] = biological target: Neu5Ac(a2-6)Gal(b1-4)GlcNAc(b1-2)Man(a1-6)[GlcNAc(b1-2)Man(a1-3)]Man(b1-4)GlcNAc(b1-4)GlcNAc
Method in brief: as §1

[8] = biological target: Neu5Ac(a2-6)Gal(b1-4)GlcNAc(b1-2)Man(a1-6)[Man(a1-3)]Man(b1-4)GlcNAc(b1-4)GlcNAc
Method in brief: as §1

[9] = biological target: Neu5Ac(a2-6)Gal(b1-4)GlcNAc(b1-2)[Neu5Ac(a2-6)Gal(b1-4)GlcNAc(b1-4)]Man(a1-3)[GlcNAc(b1-4)][Neu5Ac(a2-6)Gal(b1-4)GlcNAc(b1-2)[Neu5Ac(a2-6)Gal(b1-4)GlcNAc(b1-6)]Man(a1-6)]Man(b1-4)GlcNAc(b1-4)GlcNAc
Method in brief: as §1

[10] = biological target: Neu5Ac(a2-6)Gal(b1-4)GlcNAc(b1-2)[Neu5Ac(a2-6)Gal(b1-4)GlcNAc(b1-4)]Man(a1-3)[GlcNAc(b1-4)][Neu5Ac(a2-6)Gal(b1-4)GlcNAc(b1-4)Man(a1-6)]Man(b1-4)GlcNAc(b1-4)GlcNAc
Method in brief: as §1

[11] = biological target: Neu5Ac(a2-6)Gal(b1-4)GlcNAc(b1-2)[Neu5Ac(a2-6)Gal(b1-4)GlcNAc(b1-6)]Man(a1-6)[Neu5Ac(a2-6)Gal(b1-4)GlcNAc(b1-2)Man(a1-3)][GlcNAc(b1-4)]Man(b1-4)GlcNAc(b1-4)GlcNAc
Method in brief: as §1

[12] = biological target: Neu5Ac(a2-6)Gal(b1-4)GlcNAc(b1-3)Gal(b1-3)GlcNAc
Method in brief: as §1

[13] = biological target: Neu5Ac(a2-6)Gal(b1-4)GlcNAc(b1-3)Gal(b1-4)GlcNAc
Method in brief: as §1

[14] = biological target: Neu5Ac(a2-6)Gal(b1-4)GlcNAc(b1-3)Gal(b1-4)GlcNAc(b1-2)Man(a1-3)[Neu5Ac(a2-6)Gal(b1-4)GlcNAc(b1-3)Gal(b1-4)GlcNAc(b1-2)Man(a1-6)]GalNAc
Method in brief: as §1

[15] = biological target: Neu5Ac(a2-6)Gal(b1-4)GlcNAc(b1-3)Gal(b1-4)GlcNAc(b1-3)Gal(b1-4)GlcNAc
Method in brief: as §1

[16] = biological target: Neu5Ac(a2-6)Gal(b1-4)GlcNAc(b1-3)Gal(b1-4)GlcNAc(b1-3)Gal(b1-4)GlcNAc(b1-2)Man(a1-3)[Neu5Ac(a2-6)Gal(b1-4)GlcNAc(b1-3)Gal(b1-4)GlcNAc(b1-3)Gal(b1-4)GlcNAc(b1-2)Man(a1-6)]GalNAc
Method in brief: as §1

[17] = biological target: Neu5Ac(a2-6)Gal(b1-4)GlcNAc(b1-3)Gal(b1-4)GlcNAc(b1-3)GalNAc
Method in brief: as §1

[18] = biological target: Neu5Ac(a2-6)Gal(b1-4)GlcNAc(b1-3)Gal(b1-4)GlcNAc(b1-3)[Neu5Ac(a2-6)Gal(b1-4)GlcNAc(b1-3)Gal(b1-4)GlcNAc(b1-6)]GalNAc
Method in brief: as §1

[19] = biological target: Neu5Ac(a2-6)Gal(b1-4)GlcNAc(b1-3)Gal(b1-4)GlcNAc(b1-6)[Gal(b1-3)]GalNAc
Method in brief: as §1

[20] = biological target: Neu5Ac(a2-6)Gal(b1-4)GlcNAc(b1-3)Gal(b1-4)[Fuc(a1-3)]GlcNAc(b1-3)Gal(b1-4)[Fuc(a1-3)]GlcNAc
Method in brief: as §1

[21] = biological target: Neu5Ac(a2-6)Gal(b1-4)GlcNAc(b1-3)GalNAc
Method in brief: as §1

[22] = biological target: Neu5Ac(a2-6)Gal(b1-4)GlcNAc(b1-3)[Neu5Ac(a2-6)Gal(b1-4)GlcNAc(b1-6)]GalNAc
Method in brief: as §1

[23] = biological target: Neu5Ac(a2-6)Gal(b1-4)GlcNAc(b1-6)GalNAc
Method in brief: as §1

[24] = biological target: Neu5Ac(a2-6)Gal(b1-4)GlcNAc(b1-6)[Gal(b1-3)GlcNAc(b1-3)]Gal(b1-4)Glc
Method in brief: as §1

[25] = biological target: Neu5Ac(a2-6)Gal(b1-4)GlcNAc(b1-6)[Gal(b1-3)]GalNAc
Method in brief: as §1

[26] = biological target: Neu5Ac(a2-6)Gal(b1-4)GlcNAc6S
Method in brief: as §1

Neu5Ac(a2-6)GalNAc = biological target: Neu5Ac(a2-6)GalNAc
Method in brief: as §1

[27] = biological target: Neu5Ac(a2-6)GalNAc(b1-4)GlcNAc
Method in brief: as §1

[28] = biological target: Neu5Ac(a2-6)GalNAc(b1-4)GlcNAc6S
Method in brief: as §1

[29] = biological target: Neu5Ac(a2-6)GlcNAc(b1-4)GlcNAc
Method in brief: as §1

[30] = biological target: Neu5Ac(a2-6)GlcNAc(b1-4)GlcNAc(b1-4)GlcNAc
Method in brief: as §1

B1: EUL D1A second (Oryza sativa) (protein)
chain: GAATACTIGGVPVHTVRVFSAAGEDYCLTVRNGTACLAPKNPRDDYQHWIKDMRHSNKIRDEEGYPAFALVNKVTGEAIKHSTGQGHPVKLVPYNPEYQDESVLWTESKDVGKGFRCIRMVNNIYLNFDAFHGDKDHGGIHDGTEIVLWKWCEGDNQRWKILPWILEQKLISEEDLNSAVDHHHHHH
glycan array binding signal (z-score) [1]: 0.117
glycan array binding signal (z-score) [2]: -0.939
glycan array binding signal (z-score) [3]: -0.148
glycan array binding signal (z-score) [4]: 2.19
glycan array binding signal (z-score) [5]: 0.375
glycan array binding signal (z-score) [6]: 0.343
glycan array binding signal (z-score) [7]: 0.587
glycan array binding signal (z-score) [8]: 0.268
glycan array binding signal (z-score) [9]: 1.71
glycan array binding signal (z-score) [10]: 0.628
glycan array binding signal (z-score) [11]: -0.994
glycan array binding signal (z-score) [12]: 1.03
glycan array binding signal (z-score) [13]: 0.827
glycan array binding signal (z-score) [14]: -0.214
glycan array binding signal (z-score) [15]: -2.05
glycan array binding signal (z-score) [16]: 1.31
glycan array binding signal (z-score) [17]: 0.615
glycan array binding signal (z-score) [18]: 2.08
glycan array binding signal (z-score) [19]: -0.232
glycan array binding signal (z-score) [20]: -0.371
glycan array binding signal (z-score) [21]: 0.463
glycan array binding signal (z-score) [22]: 2.81
glycan array binding signal (z-score) [23]: 1.01
glycan array binding signal (z-score) [24]: 0.242
glycan array binding signal (z-score) [25]: 0.124
glycan array binding signal (z-score) [26]: -2.01
glycan array binding signal (z-score) (Neu5Ac(a2-6)GalNAc): -0.843
glycan array binding signal (z-score) [27]: -1.36
glycan array binding signal (z-score) [28]: -0.158
glycan array binding signal (z-score) [29]: -0.238
glycan array binding signal (z-score) [30]: -0.278
